Laboratory results taken from patent publication US20030008814A1 (priority 2002, published 2003).
Some peptides are written in HELM: one residue between dots, names in brackets for other building blocks, links after the first $.

Test: peptide synthesis
Settings: late stage modification step

## PEPTIDE1{[3-OH-C14].S.[D-Dab].D.K.[Dab].[aThr].[Z-Dhb].[Asp(3-OH)].[Thr(4-Cl)]}|CHEM1{[pBn2PO4-BnOCO]}|CHEM2{[pBn2PO4-BnOCO]}|CHEM3{[pBn2PO4-BnOCO]}$PEPTIDE1,PEPTIDE1,2:R3-10:R2|PEPTIDE1,CHEM1,3:R3-1:R2|PEPTIDE1,CHEM2,5:R3-1:R2|PEPTIDE1,CHEM3,6:R3-1:R2$$$V2.0
  step yield: 34%
